# Hit rate of the full screen: of about 330,000 compounds, about 7,700 (2.3%) were called active. The shares of active, inactive and inconclusive entries below differ from those in the screen. Calls come from the whole dose curve; as a rule, active = well fitted inhibition curve with a large enough effect; inconclusive = small, poorly fitted or top-dose-only effect, or effect the other way; inactive = flat fitted curve, though single readings scatter. Where the call is inconclusive, the potency comes from a doubtful curve fit.
# Assay: qHTS screen for small molecules that inhibit ELG1-dependent DNA repair in human embryonic kidney (HEK293T) cells expressing luciferase-tagged ELG1; note: nearly all actives have a fitted effect of over 55% in size
# Conditions: HEK293T ELG1-luciferase reporter, luminescence, 16 h, DNA damage induced by 5-fluorouridine; activity change, negative = inhibition: at 46.1 µM (top of the series)
# In short: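 Luminescence from the luciferase reporter, measured 30 min after ONE-Glo reagent at room temperature, was the read-out. Beforehand, 2,000 cells per well were exposed for 16 hr at 37 °C to 5-fluorouridine together with compound or vehicle.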
# % is set by controls: 0 for no effect and ±100 for the full control effect; potency is the fitted concentration of half-maximal effect.
Compound,"activity change, negative = inhibition",Potency
Cc1cc(C)cc(NC(=O)Cn2ncn3c(cc4ccccc43)c2=O)c1,inactive: 25.1%,
CN1CCN(C(=S)c2cn(Cc3ccccc3)c3ccccc23)CC1,inactive: -0.786%,
Cc1nc(NC(=O)C2CCCCC2)sc1C,,"inconclusive: 14.6 µM [activator, partial curve]"
CC(C)(C)c1cc(C(=O)N/N=C/c2ccco2)n[nH]1,,"inconclusive: 14.6 µM [activator, partial curve]"
COc1ccccc1NS(=O)(=O)c1ccc(C)c(NC(=O)C2CCCO2)c1 (stereo not given),inactive: 26.4%,
O=C(NCC(=O)N1CCCCC1)c1sc2ccccc2c1Cl,,"inconclusive: 5.17 µM [activator, partial curve]"
CSC(=NC#N)N1CCN(c2cccc(Cl)c2)CC1,inactive: 22.4%,
c1ccc(COc2ccccc2CNC23CC4CC(CC(C4)C2)C3)cc1,,"inconclusive: 16.4 µM [inhibitor, partial curve]"
Cc1occc1-c1nc(-c2ccccn2)no1,,"inconclusive: 2.51 µM [activator, full curve]"
O=C1C2CCCN2C(c2ccco2)N1c1ccc(F)cc1 (stereo not given),,"inconclusive: 29.1 µM [activator, single point]"
Cc1ccccc1CNc1nc(N)n(-c2ccccc2)n1,,"inconclusive: 20.6 µM [activator, partial curve, poor fit]"
COc1cc(S(=O)(=O)Nc2ccccc2C)ccc1Cl,inactive: -0.0902%,
CSc1ccc(Cc2ccc(Cl)cc2Cl)nn1,,"inconclusive: 18.4 µM [activator, single point]"
COc1ccc(CCNC(=O)c2ccncc2)cc1OC,inactive: -3.78%,
S=c1[nH]nc(Nc2cccc(Cl)c2)s1,,"inconclusive: 10.3 µM [activator, partial curve]"
O=C(c1ccccc1)c1nn(-c2ccccc2)c(=O)cc1C(F)(F)F,,"inconclusive: 16.4 µM [inhibitor, partial curve]"
Cc1sc2ncnc(NCC(O)c3ccc([N+](=O)[O-])cc3)c2c1C (stereo not given),,"inconclusive: 2.31 µM [inhibitor, full curve, poor fit]"
CCC(=O)NC(c1ccc(C)cc1)c1cc(Cl)c2cccnc2c1O (stereo not given),,active: 3.66 µM
Cc1cccnc1NC(=O)CSc1ccc2c(c1)OCCO2,inactive: 12.5%,
CCCCCCCC(=O)NN1CCOCC1,,"inconclusive: 32.6 µM [activator, partial curve, poor fit]"
Cc1ccccc1S(=O)(=O)Cc1ccc(C(=O)NCc2ccc(F)cc2)o1,,"inconclusive: 16.4 µM [inhibitor, single point]"
Cn1c(=O)[nH]c(=O)c2c1nc(NCc1ccco1)n2CCCc1ccccc1,,"inconclusive: 9.2 µM [activator, partial curve]"
O=C(O)c1ccc(CS(=O)c2cccc(C(F)(F)F)c2)o1 (stereo not given),,active: 10.3 µM
COC(=O)CSc1nccc(C)n1,,"inconclusive: 25.9 µM [activator, partial curve, poor fit]"

# Molecules from the list above that have a CF3 group, in the order listed:
Compound,"activity change, negative = inhibition",Potency
O=C(c1ccccc1)c1nn(-c2ccccc2)c(=O)cc1C(F)(F)F,,"inconclusive: 16.4 µM [inhibitor, partial curve]"
O=C(O)c1ccc(CS(=O)c2cccc(C(F)(F)F)c2)o1 (stereo not given),,active: 10.3 µM

# Additional compounds follow:

Compound,"activity change, negative = inhibition",Potency
Cc1ccc(CNC(=O)COc2ccc(S(=O)(=O)N3CCOCC3)cc2)cc1,inactive: 12.8%,
COc1ccc(-c2noc(C3CCCN(C(=O)Nc4ccccc4)C3)n2)cc1 (stereo not given),inactive: 15.9%,
COc1cccc(NC(=O)c2cnc(SCC(=O)NCc3ccc4c(c3)OCO4)n(C)c2=O)c1,,"inconclusive: 12.6 µM [activator, partial curve, poor fit]"
COc1ccccc1CNC(=O)COC(=O)c1cc(-c2ccco2)nc2ccccc12,,"inconclusive: 32.6 µM [inhibitor, partial curve, poor fit]"
O=C(c1cc(-c2ccco2)on1)N1CCc2ccccc2C1,,"inconclusive: 14.6 µM [activator, partial curve]"
Cc1cc(=O)oc2cc(NC(=O)c3ccc(OC(F)F)cc3)ccc12,,"inconclusive: 2.06 µM [activator, partial curve]"
COC(=O)c1ccc(CSc2nc3ccccc3c(=O)n2Cc2ccco2)o1,,"inconclusive: 18.4 µM [inhibitor, single point]"
COCC(=O)N1CCC(Oc2ccc(C(=O)NC(C)c3nccs3)cc2)CC1 (stereo not given),inactive: 4.66%,
COc1ccc(OCc2csc(N)n2)cc1,,"inconclusive: 16.4 µM [activator, partial curve]"
Cn1c(=O)c2c(ncn2CC(=O)Nc2cc(S(=O)(=O)N3CCCCC3)ccc2Cl)n(C)c1=O,,"inconclusive: 0.291 µM [inhibitor, partial curve, poor fit]"
Cc1ccc(C)c(N=Nc2ccc(O)c3ncccc23)c1,,"inconclusive: 29.1 µM [activator, single point]"
S=C(N/N=C/c1ccccc1)N1CCOCC1,,"inconclusive: 29.1 µM [activator, single point]"
CCCNS(=O)(=O)c1ccc(NC(=O)c2ccccn2)cc1,,"inconclusive: 18.4 µM [activator, single point]"
C=CCNC(=O)c1cc2c(=O)n3cccc(C)c3nc2s1,,"inconclusive: 18.3 µM [activator, single point]"
Cc1ccc(-c2cc(C(=O)N3N=C(C(F)F)CC3(O)C(F)F)c3ccccc3n2)cc1C (stereo not given),,"inconclusive: 29.1 µM [activator, single point]"
COc1ccc(-n2nc3c(N4CCC(C(=O)NCCc5ccccc5C)CC4)nnc(C)c3c2C)cc1,,"inconclusive: 20.6 µM [activator, partial curve, poor fit]"
COc1cc(C(=O)NC2CCCc3c2cnn3-c2ccccc2F)cc(OC)c1OC (stereo not given),,"inconclusive: 5.17 µM [inhibitor, full curve]"
CCOc1ccc(N2CC(C(=O)Nc3ccc(S(=O)(=O)N4CCOCC4)cc3)CC2=O)cc1 (stereo not given),inactive: -11.9%,
COc1ccc(CN(Cc2ccccn2)S(=O)(=O)c2ccc(-n3cnnn3)c(OC)c2)cc1,,"inconclusive: 25.9 µM [inhibitor, single point]"
CN(C)C(CNC(=O)c1ccc(C(=O)c2ccccc2)cc1)c1ccccc1 (stereo not given),inactive: 26.9%,
COc1cccc(CNC(=O)CN(c2cc(C)cc(C)c2)S(=O)(=O)c2c(C)noc2C)c1,inactive: -21.3%,
CC(C)(C)c1ccc(NC(=O)COC(=O)c2ccc3ncsc3c2)cc1,,"inconclusive: 6.51 µM [activator, partial curve, poor fit]"
CCc1ccc2oc(C(=O)NCc3ccncc3)c(C)c2c1,,"inconclusive: 18.4 µM [activator, single point]"
CCN1C(=O)[C@@H]2[C@@H](c3ccc(-c4cccc(Cl)c4)cc3)N3CCC[C@@]3(C(=O)OC)[C@@H]2C1=O,,"inconclusive: 12.6 µM [inhibitor, single point]"

# Looked up by structure from the list above:
Compound,"activity change, negative = inhibition",Potency
CCOc1ccc(N2CC(C(=O)Nc3ccc(S(=O)(=O)N4CCOCC4)cc3)CC2=O)cc1 (stereo not given),inactive: -11.9%,
CSC(=NC#N)N1CCN(c2cccc(Cl)c2)CC1,inactive: 22.4%,

# Going on with the list.

Compound,"activity change, negative = inhibition",Potency
O=C1CCCc2nc(N3CCCCC3)sc21,,"inconclusive: 16.4 µM [activator, partial curve]"
O=C(O)c1ccccc1C(=O)N1CC=C(c2ccccc2)CC1,,"inconclusive: 16.4 µM [activator, single point]"
Clc1ccccc1CSc1ncccn1,,"inconclusive: 8.2 µM [activator, single point]"
Cc1ccc(C)c(NC(=O)CCN2CCCCC2)c1,,"inconclusive: 7.94 µM [activator, partial curve, poor fit]"
CCCCCCc1nnc(NC(=O)OCC)s1,inactive: 12.2%,
O=C(Nc1ccc(Cl)cc1Cl)c1ccc2ncsc2c1,,"inconclusive: 8.2 µM [activator, partial curve]"
COc1cccc(C(=O)C2CCCN(Cc3cccc(OCCO)c3)C2)c1 (stereo not given),inactive: -1.72%,
Cc1nnc2ccc(-c3ccc(NC(=O)c4ccco4)cc3)nn12,,"inconclusive: 23.1 µM [activator, single point]"
CN(CC(=O)Nc1ccc(F)cc1)C(=O)Cn1cnc2ccc([N+](=O)[O-])cc2c1=O,,"inconclusive: 29.1 µM [activator, single point]"
COc1ccc2c(c1)[nH]c1c(=O)n(Cc3ccccn3)cnc12,,"inconclusive: 20.6 µM [activator, single point]"
O=C(Cc1cccs1)Nc1ccccc1C(=O)O,,"inconclusive: 20.6 µM [activator, partial curve]"
O=C(CSc1nnc(-c2ccccn2)o1)Nc1ccccc1F,,"inconclusive: 6.51 µM [activator, partial curve]"
Cc1cc(NC(=O)CSc2nnc(CNC(=O)c3ccc(C(C)(C)C)cc3)o2)no1,inactive: 2.36%,
C=CCN1C(=O)/C(=C/c2ccc(OCC(=O)O)cc2)S/C1=N/c1nccs1,inactive: 5.57%,
COc1cc(NC(=O)C2=C(N3CCOCC3)/C(=C\c3ccc(Br)cc3)CC2)cc(OC)c1OC,,active: 18.4 µM
COC(=O)CSc1nc(NCC(C)C)nc(N2CCOCC2)n1,,"inconclusive: 29.1 µM [inhibitor, single point]"
Cc1cc(C)nc(-n2nc(C)cc2NC(=O)c2cccc(S(=O)(=O)N3CCOCC3)c2)n1,inactive: -15.6%,
O=C(Cn1c(C(=O)NCc2ccco2)cc2sccc21)c1ccccc1,,"inconclusive: 29.1 µM [inhibitor, single point]"
O=c1[nH]c(Cn2nnc(-c3ccccc3)n2)nc2scc(-c3ccccc3)c12,,"inconclusive: 25.1 µM [inhibitor, partial curve, poor fit]"
C=CCOc1ccc(CN(C)c2ccc(S(=O)(=O)N3CCN(C)CC3)cc2[N+](=O)[O-])cc1,inactive: -15.3%,
CCc1cccc(CC)c1NC(=O)c1cc(CN2C(=O)c3ccccc3C2=O)ccc1OC,,"inconclusive: 32.6 µM [inhibitor, single point]"
Brc1ccc2oc3c(N4CCOCC4)ncnc3c2c1,,"inconclusive: 11.2 µM [activator, partial curve]"

# Reference: PubChem BioAssay AID504467 (National Center for Advancing Translational Sciences (NCATS), 2011)
